Some of the results follow. This data set is noisy: repeats of one test often differ as much as different tests do.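 A first-round screen of about ten thousand compounds sought those raising reporter output, using human embryonic kidney cells briefly transfected with a plasmid carrying a Renilla luciferase gene driven by the HSV-TK promoter.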

The subject of this assay is HEK 293FT. The experiment in a line: log relative Renilla luciferase luminescence (reporter expression vs reference, reference not stated) (log (base not stated)); higher = higher recombinant reporter expression. Conditions: 10 µM; time after transfection 48 h.
With `CC(=O)OC1CN2CCC1CC2` (stereo not drawn) [Aceclidine Salicylate], the log is 0.13.

On to `Cn1c(=O)c2nncnc2n(C)c1=O` [Isofervenulin], for which the log is -0.289.

Turning to `CCC1(c2ccccc2)C(=O)N(COC)C(=O)N(COC)C1=O` [Eterobarb], the log was -1.36.

(Values after the supplement of paper PMC7024190.)
